Laboratory results reported in patent US20200131270A1, “COMBINATION USE OF INHIBITOR TARGETING PD-1/PD-L1 AND COX-2 INHIBITOR” (priority 2017, published 2020).
For at least one compound, name, drawing or mass did not settle the structure.

What was measured:
CMM-1 = assay: PGE2 production from canine tumor cell line (EIA); conditions: meloxicam 5 μM
HM-POS = assay: PGE2 production from canine tumor cell line (EIA); conditions: meloxicam 5 μM
[1] = tested on: PBMCs derived from uninfected cattle; assay: PBMC culture under anti-CD3/anti-CD28 stimulation: cell proliferation (CFSE) and cytokine production (ELISA); conditions: meloxicam 1,000 nM; 3 days

Cc1cnc(NC(=O)C2=C(O)c3ccccc3S(=O)(=O)N2C)s1 [meloxicam]
PGE2 production from CMM-1 (CMM-1): showed a tendency to decrease | PGE2 production from HM-POS (HM-POS): showed a tendency to decrease | production of IFN-γ [1]: increased significantly | production of TNF-α [1]: increased significantly | proliferation rate of CD8^+ cells [1]: increased significantly
